Experimental data: the supplement of paper PMC6411743
± gives the standard deviation of the averaged measurements. The list shows a part of the results.

Columns and labels:
Assay in all cases: NP40-soluble protein abundance relative to vehicle (solubility fold change) (ratio); higher = more soluble protein in presence of GTP
HADHB = target: T1, HADHB (UniProt P55084)
T1 sequence (whole entry): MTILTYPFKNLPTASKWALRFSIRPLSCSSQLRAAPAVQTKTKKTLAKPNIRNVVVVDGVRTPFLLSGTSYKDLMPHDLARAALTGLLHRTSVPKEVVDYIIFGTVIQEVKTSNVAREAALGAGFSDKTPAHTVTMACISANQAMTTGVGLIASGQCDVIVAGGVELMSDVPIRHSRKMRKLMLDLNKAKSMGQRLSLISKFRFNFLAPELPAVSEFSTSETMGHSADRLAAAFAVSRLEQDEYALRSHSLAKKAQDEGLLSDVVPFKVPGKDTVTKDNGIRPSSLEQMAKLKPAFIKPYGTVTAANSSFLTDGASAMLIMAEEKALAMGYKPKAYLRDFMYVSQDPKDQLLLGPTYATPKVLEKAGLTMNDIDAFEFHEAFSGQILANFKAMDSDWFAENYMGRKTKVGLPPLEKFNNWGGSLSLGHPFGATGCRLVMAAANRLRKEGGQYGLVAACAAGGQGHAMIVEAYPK
Summary of the method: (§1)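 Values are fold changes against the detergent-processed vehicle, based on vsn-normalised intensities. Jurkat crude lysate was treated at eight concentrations from 0.1 to 10 mM (10 min at room temperature, then 3 min at 37 °C), solubilised with 0.8% NP40 and benzonase, ultracentrifuged and analysed by TMT-labelled LC-MS/MS over three independent experiments.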

HNRNPF = target: T2, HNRNPF (UniProt P52597)
T2 sequence (whole entry): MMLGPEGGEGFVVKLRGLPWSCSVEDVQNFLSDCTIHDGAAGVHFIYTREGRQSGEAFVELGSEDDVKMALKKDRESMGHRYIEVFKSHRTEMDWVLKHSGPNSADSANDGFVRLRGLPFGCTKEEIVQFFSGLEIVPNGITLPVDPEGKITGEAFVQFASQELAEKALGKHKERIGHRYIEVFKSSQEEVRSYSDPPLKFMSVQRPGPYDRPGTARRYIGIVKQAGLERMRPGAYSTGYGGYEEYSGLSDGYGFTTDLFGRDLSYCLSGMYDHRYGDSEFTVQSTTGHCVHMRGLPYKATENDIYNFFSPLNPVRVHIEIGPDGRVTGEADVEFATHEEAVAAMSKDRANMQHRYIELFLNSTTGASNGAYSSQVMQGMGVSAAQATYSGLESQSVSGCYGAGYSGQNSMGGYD
Summary of the method: as §1

SARNP = target: T3, SARNP (UniProt P82979)
T3 sequence (whole entry): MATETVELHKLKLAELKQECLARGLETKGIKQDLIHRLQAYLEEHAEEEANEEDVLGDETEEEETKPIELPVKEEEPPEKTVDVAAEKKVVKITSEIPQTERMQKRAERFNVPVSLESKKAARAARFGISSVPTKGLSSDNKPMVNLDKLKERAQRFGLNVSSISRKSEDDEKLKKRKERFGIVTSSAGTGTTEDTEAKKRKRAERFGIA
Summary of the method: as §1

SLC12A2 = target: T4, SLC12A2 (UniProt P55011)
T4 sequence (whole entry): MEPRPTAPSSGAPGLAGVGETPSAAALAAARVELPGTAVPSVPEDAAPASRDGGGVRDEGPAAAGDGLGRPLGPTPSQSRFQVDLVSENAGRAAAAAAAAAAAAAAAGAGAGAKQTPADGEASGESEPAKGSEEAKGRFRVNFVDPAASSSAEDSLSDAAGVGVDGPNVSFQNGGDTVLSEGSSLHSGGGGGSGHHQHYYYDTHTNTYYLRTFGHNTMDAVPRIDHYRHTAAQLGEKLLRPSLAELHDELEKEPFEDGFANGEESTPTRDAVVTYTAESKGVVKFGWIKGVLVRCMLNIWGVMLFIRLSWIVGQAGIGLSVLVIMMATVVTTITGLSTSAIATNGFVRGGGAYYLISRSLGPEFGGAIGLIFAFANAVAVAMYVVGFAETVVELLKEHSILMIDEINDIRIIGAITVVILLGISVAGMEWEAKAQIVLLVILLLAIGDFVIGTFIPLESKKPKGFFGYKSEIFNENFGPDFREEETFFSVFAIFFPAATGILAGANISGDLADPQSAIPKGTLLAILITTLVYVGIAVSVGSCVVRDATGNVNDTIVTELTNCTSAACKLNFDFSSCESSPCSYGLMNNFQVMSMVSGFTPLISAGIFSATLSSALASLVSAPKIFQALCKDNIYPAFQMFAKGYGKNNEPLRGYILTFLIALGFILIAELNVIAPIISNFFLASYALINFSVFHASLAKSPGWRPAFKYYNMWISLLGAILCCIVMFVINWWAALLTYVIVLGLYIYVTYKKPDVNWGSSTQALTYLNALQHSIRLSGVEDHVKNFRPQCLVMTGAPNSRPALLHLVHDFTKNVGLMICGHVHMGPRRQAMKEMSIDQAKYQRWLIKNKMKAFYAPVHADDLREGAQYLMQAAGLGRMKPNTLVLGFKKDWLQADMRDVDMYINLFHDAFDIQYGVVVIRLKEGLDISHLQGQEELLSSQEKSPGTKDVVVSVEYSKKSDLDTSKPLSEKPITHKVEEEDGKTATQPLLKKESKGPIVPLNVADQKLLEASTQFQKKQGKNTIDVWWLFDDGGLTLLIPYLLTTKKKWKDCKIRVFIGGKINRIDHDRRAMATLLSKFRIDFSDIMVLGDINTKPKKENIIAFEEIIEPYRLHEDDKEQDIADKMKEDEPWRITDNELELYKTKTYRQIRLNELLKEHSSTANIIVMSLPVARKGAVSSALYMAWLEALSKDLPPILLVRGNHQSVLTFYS
Summary of the method: as §1

[1] = target: T5, UniProt P52594 and related entries
T5 sequence (whole entry): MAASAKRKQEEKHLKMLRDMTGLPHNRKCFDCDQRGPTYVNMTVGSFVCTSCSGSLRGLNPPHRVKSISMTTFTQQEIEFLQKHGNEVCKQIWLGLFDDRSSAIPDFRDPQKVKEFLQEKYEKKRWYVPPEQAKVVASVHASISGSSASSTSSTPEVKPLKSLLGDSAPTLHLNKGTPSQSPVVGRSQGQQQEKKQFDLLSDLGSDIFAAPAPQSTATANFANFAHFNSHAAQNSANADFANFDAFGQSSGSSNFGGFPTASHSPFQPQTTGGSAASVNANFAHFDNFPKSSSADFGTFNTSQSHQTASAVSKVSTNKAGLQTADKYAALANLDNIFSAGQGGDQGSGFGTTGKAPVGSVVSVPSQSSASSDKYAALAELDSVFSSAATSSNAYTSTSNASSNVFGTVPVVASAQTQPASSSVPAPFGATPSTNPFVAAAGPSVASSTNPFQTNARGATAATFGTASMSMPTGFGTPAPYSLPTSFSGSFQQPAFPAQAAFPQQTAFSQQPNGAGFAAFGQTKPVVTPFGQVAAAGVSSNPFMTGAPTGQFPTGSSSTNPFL
Summary of the method: as §1

[2] = target: T6, UniProt P54278 and related entries
T6 sequence (whole entry): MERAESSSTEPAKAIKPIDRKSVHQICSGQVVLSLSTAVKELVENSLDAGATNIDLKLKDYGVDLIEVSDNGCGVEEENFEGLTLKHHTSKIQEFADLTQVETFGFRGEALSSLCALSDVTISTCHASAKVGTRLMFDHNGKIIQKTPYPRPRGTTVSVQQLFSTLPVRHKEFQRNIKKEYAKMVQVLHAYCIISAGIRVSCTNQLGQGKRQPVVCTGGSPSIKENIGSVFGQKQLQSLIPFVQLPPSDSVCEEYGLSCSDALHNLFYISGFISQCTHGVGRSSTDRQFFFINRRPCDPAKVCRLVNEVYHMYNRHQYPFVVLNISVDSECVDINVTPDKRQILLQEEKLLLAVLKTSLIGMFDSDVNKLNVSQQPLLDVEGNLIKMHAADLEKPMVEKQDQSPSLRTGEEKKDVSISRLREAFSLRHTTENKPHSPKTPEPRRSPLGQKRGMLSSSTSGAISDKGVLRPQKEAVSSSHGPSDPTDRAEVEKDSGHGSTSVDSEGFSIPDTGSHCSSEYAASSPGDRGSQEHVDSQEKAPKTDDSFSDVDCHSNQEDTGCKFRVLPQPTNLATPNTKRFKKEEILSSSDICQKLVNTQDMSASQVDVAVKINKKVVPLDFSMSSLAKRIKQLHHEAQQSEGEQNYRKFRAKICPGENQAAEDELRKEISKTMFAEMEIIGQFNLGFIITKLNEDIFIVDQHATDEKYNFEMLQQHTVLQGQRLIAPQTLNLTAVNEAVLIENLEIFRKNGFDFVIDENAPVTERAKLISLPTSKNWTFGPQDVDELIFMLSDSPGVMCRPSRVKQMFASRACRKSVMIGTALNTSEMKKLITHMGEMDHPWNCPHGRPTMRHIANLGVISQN
Summary of the method: as §1

[3] = target: T7, UniProt P54725 and related entries
T7 sequence (whole entry): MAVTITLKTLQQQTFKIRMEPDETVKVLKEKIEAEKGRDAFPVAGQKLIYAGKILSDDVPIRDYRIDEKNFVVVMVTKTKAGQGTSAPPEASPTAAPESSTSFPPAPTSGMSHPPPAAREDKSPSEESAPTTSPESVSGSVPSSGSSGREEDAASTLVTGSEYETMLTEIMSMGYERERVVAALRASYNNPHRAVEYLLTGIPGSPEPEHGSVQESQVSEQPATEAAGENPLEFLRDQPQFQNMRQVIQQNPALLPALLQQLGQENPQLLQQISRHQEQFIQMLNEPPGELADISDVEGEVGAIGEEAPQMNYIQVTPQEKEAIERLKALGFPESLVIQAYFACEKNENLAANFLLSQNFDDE
Summary of the method: as §1

Nc1nc2c(ncn2[C@@H]2O[C@H](COP(=O)(O)OP(=O)(O)OP(=O)(O)O)[C@@H](O)[C@H]2O)c(=O)[nH]1 [guanosine triphosphate]
NP40-soluble protein abundance (HADHB; concentration: 0.1mM): 0.996 ± 0.013
NP40-soluble protein abundance (HADHB; concentration: 0.5mM): 1.02 ± 0.036
NP40-soluble protein abundance (HADHB; concentration: 1mM): 0.972 ± 0.033
NP40-soluble protein abundance (HADHB; concentration: 2mM): 0.983 ± 0.042
NP40-soluble protein abundance (HADHB; concentration: 4mM): 1.01 ± 0.092
NP40-soluble protein abundance (HADHB; concentration: 6mM): 0.99 ± 0.095
NP40-soluble protein abundance (HADHB; concentration: 8mM): 0.991 ± 0.079
NP40-soluble protein abundance (HADHB; concentration: 10mM): 0.988 ± 0.062
NP40-soluble protein abundance (HNRNPF; concentration: 0.1mM): 0.985 ± 0.025
NP40-soluble protein abundance (HNRNPF; concentration: 0.5mM): 0.977 ± 0.024
NP40-soluble protein abundance (HNRNPF; concentration: 1mM): 0.939 ± 0.013
NP40-soluble protein abundance (HNRNPF; concentration: 2mM): 0.894 ± 0.014
NP40-soluble protein abundance (HNRNPF; concentration: 4mM): 0.878 ± 0.018
NP40-soluble protein abundance (HNRNPF; concentration: 6mM): 0.904 ± 0.019
NP40-soluble protein abundance (HNRNPF; concentration: 8mM): 0.876 ± 0.04
NP40-soluble protein abundance (HNRNPF; concentration: 10mM): 0.838 ± 0.044
NP40-soluble protein abundance (SARNP; concentration: 0.1mM): 0.796 ± 0.018
NP40-soluble protein abundance (SARNP; concentration: 0.5mM): 0.782 ± 0.11
NP40-soluble protein abundance (SARNP; concentration: 1mM): 0.867 ± 0.029
NP40-soluble protein abundance (SARNP; concentration: 2mM): 0.892 ± 0.14
NP40-soluble protein abundance (SARNP; concentration: 4mM): 0.926 ± 0.12
NP40-soluble protein abundance (SARNP; concentration: 6mM): 0.994 ± 0.17
NP40-soluble protein abundance (SARNP; concentration: 8mM): 0.992 ± 0.12
NP40-soluble protein abundance (SARNP; concentration: 10mM): 1.03 ± 0.12
NP40-soluble protein abundance (SLC12A2; concentration: 0.1mM): 0.98 ± 0.041
NP40-soluble protein abundance (SLC12A2; concentration: 0.5mM): 1.01 ± 0.06
NP40-soluble protein abundance (SLC12A2; concentration: 1mM): 0.981 ± 0.033
NP40-soluble protein abundance (SLC12A2; concentration: 2mM): 0.956 ± 0.021
NP40-soluble protein abundance (SLC12A2; concentration: 4mM): 0.959 ± 0.024
NP40-soluble protein abundance (SLC12A2; concentration: 6mM): 0.965 ± 0.035
NP40-soluble protein abundance (SLC12A2; concentration: 8mM): 0.978 ± 0.049
NP40-soluble protein abundance (SLC12A2; concentration: 10mM): 0.967 ± 0.02
NP40-soluble protein abundance ([1]; concentration: 0.1mM): 0.924 ± 0.047
NP40-soluble protein abundance ([1]; concentration: 0.5mM): 0.921 ± 0.019
NP40-soluble protein abundance ([1]; concentration: 1mM): 0.895 ± 0.038
NP40-soluble protein abundance ([1]; concentration: 2mM): 0.902 ± 0.059
NP40-soluble protein abundance ([1]; concentration: 4mM): 0.853 ± 0.088
NP40-soluble protein abundance ([1]; concentration: 6mM): 0.879 ± 0.082
NP40-soluble protein abundance ([1]; concentration: 8mM): 0.819 ± 0.052
NP40-soluble protein abundance ([1]; concentration: 10mM): 0.882 ± 0.05
NP40-soluble protein abundance ([2]; concentration: 0.1mM): 1.13 ± 0.043
NP40-soluble protein abundance ([2]; concentration: 0.5mM): 1.2 ± 0.11
NP40-soluble protein abundance ([2]; concentration: 1mM): 1.15 ± 0.11
NP40-soluble protein abundance ([2]; concentration: 2mM): 1.15 ± 0.11
NP40-soluble protein abundance ([2]; concentration: 4mM): 1.14 ± 0.085
NP40-soluble protein abundance ([2]; concentration: 6mM): 1.15 ± 0.073
NP40-soluble protein abundance ([2]; concentration: 8mM): 1.15 ± 0.12
NP40-soluble protein abundance ([2]; concentration: 10mM): 1.12 ± 0.14
NP40-soluble protein abundance ([3]; concentration: 0.1mM): 0.869 ± 0.054
NP40-soluble protein abundance ([3]; concentration: 0.5mM): 0.832 ± 0.042
NP40-soluble protein abundance ([3]; concentration: 1mM): 0.954 ± 0.049
NP40-soluble protein abundance ([3]; concentration: 2mM): 0.953 ± 0.062
NP40-soluble protein abundance ([3]; concentration: 4mM): 0.933 ± 0.038
NP40-soluble protein abundance ([3]; concentration: 6mM): 0.912 ± 0.079
NP40-soluble protein abundance ([3]; concentration: 8mM): 0.904 ± 0.12
NP40-soluble protein abundance ([3]; concentration: 10mM): 0.977 ± 0.054
